For assay [1], the target named is T1, GST-PKGα (recombinant GST-tagged PKGα fusion protein) (UniProt Q13976).
T1 sequence: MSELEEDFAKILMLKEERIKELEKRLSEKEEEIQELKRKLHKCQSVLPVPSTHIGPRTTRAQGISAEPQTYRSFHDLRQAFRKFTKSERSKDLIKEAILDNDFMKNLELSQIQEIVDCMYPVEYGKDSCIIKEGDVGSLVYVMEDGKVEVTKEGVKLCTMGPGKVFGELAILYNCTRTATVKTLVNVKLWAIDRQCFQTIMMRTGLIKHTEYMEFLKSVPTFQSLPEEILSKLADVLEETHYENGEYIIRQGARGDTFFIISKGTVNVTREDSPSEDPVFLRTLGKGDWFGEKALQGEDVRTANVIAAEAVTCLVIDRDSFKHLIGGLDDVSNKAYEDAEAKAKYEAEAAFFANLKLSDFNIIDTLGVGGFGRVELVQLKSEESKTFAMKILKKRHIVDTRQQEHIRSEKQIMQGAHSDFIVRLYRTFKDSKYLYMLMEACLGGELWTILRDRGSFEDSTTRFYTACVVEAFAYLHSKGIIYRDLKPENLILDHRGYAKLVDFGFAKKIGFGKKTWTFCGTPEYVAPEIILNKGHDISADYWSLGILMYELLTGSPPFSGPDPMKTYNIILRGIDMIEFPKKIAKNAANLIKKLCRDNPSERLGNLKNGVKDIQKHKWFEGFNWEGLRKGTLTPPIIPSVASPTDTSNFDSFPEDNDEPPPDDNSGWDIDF
Kind of assay: pull-down; 500 ng GST or GST-PKG on GST magnetic beads, incubated with 200 ng recombinant HSL in GST-binding buffer with cGMP (15 µM), 4 °C, 2 h; Western blot; both purified.

For assay [2], the target named is T1, GST-PKGα (recombinant GST-tagged PKGα fusion protein). Kind of assay: pull-down; 500 ng GST-PKG on GST magnetic beads, incubated with MGC803 or MKN1 cell lysate in GST-binding buffer with cGMP (15 µM), 4 °C, 2 h; Western blot; only the target purified. For orientation: A western blot detects proteins with antibodies after separation by electrophoresis.

These are yes or no findings as the source states them, for the method shown. For some assays here: In cells and extracts the contact can be indirect. Some binding calls cover weakened binding; strength is not graded here. Sequences can lack the tags named with a protein.

B1: HSL-HIS (recombinant hormone-sensitive lipase, His-tagged) (enzyme, UniProt Q05469 1-1076)
chain: MEPGSKSVSRSDWQPEPHQRPITPLEPGPEKTPIAQPESKTLQGSNTQQKPASNQRPLTQQETPAQHDAESQKEPRAQQKSASQEEFLAPQKPAPQQSPYIQRVLLTQQEAASQQGPGLGKESITQQEPALRQRHVAQPGPGPGEPPPAQQEAESTPAAQAKPGAKREPSAPTESTSQETPEQSDKQTTPVQGAKSKQGSLTELGFLTKLQELSIQRSALEWKALSEWVTDSESESDVGSSSDTDSPATMGGMVAQGVKLGFKGKSGYKVMSGYSGTSPHEKTSARNHRHYQDTASRLIHNMDLRTMTQSLVTLAEDNIAFFSSQGPGETAQRLSGVFAGVREQALGLEPALGRLLGVAHLFDLDPETPANGYRSLVHTARCCLAHLLHKSRYVASNRRSIFFRTSHNLAELEAYLAALTQLRALVYYAQRLLVTNRPGVLFFEGDEGLTADFLREYVTLHKGCFYGRCLGFQFTPAIRPFLQTISIGLVSFGEHYKRNETGLSVAASSLFTSGRFAIDPELRGAEFERITQNLDVHFWKAFWNITEMEVLSSLANMASATVRVSRLLSLPPEAFEMPLTADPTLTVTISPPLAHTGPGPVLVRLISYDLREGQDSEELSSLIKSNGQRSLELWPRPQQAPRSRSLIVHFHGGGFVAQTSRSHEPYLKSWAQELGAPIISIDYSLAPEAPFPRALEECFFAYCWAIKHCALLGSTGERICLAGDSAGGNLCFTVALRAAAYGVRVPDGIMAAYPATMLQPAASPSRLLSLMDPLLPLSVLSKCVSAYAGAKTEDHSNSDQKALGMMGLVRRDTALLLRDFRLGASSWLNSFLELSGRKSQKMSEPIAEPMRRSVSEAALAQPQGPLGTDSLKNLTLRDLSLRGNSETSSDTPEMSLSAETLSPSTPSDVNFLLPPEDAGEEAEAKNELSPMDRGLGVRAAFPEGFHPRRSSQGATQMPLYSSPIVKNPFMSPLLAPDSMLKSLPPVHIVACALDPMLDDSVMLARRLRNLGQPVTLRVVEDLPHGFLTLAALCRETRQAAELCVERIRLVLTPPAGAGPSGETGAAGVDGGCGGRH
With B1, the binding entry in assay [1] is reported as “binds”.

B2: endogenous HSL (hormone-sensitive lipase) (enzyme, UniProt Q05469 1-1076)
chain: MEPGSKSVSRSDWQPEPHQRPITPLEPGPEKTPIAQPESKTLQGSNTQQKPASNQRPLTQQETPAQHDAESQKEPRAQQKSASQEEFLAPQKPAPQQSPYIQRVLLTQQEAASQQGPGLGKESITQQEPALRQRHVAQPGPGPGEPPPAQQEAESTPAAQAKPGAKREPSAPTESTSQETPEQSDKQTTPVQGAKSKQGSLTELGFLTKLQELSIQRSALEWKALSEWVTDSESESDVGSSSDTDSPATMGGMVAQGVKLGFKGKSGYKVMSGYSGTSPHEKTSARNHRHYQDTASRLIHNMDLRTMTQSLVTLAEDNIAFFSSQGPGETAQRLSGVFAGVREQALGLEPALGRLLGVAHLFDLDPETPANGYRSLVHTARCCLAHLLHKSRYVASNRRSIFFRTSHNLAELEAYLAALTQLRALVYYAQRLLVTNRPGVLFFEGDEGLTADFLREYVTLHKGCFYGRCLGFQFTPAIRPFLQTISIGLVSFGEHYKRNETGLSVAASSLFTSGRFAIDPELRGAEFERITQNLDVHFWKAFWNITEMEVLSSLANMASATVRVSRLLSLPPEAFEMPLTADPTLTVTISPPLAHTGPGPVLVRLISYDLREGQDSEELSSLIKSNGQRSLELWPRPQQAPRSRSLIVHFHGGGFVAQTSRSHEPYLKSWAQELGAPIISIDYSLAPEAPFPRALEECFFAYCWAIKHCALLGSTGERICLAGDSAGGNLCFTVALRAAAYGVRVPDGIMAAYPATMLQPAASPSRLLSLMDPLLPLSVLSKCVSAYAGAKTEDHSNSDQKALGMMGLVRRDTALLLRDFRLGASSWLNSFLELSGRKSQKMSEPIAEPMRRSVSEAALAQPQGPLGTDSLKNLTLRDLSLRGNSETSSDTPEMSLSAETLSPSTPSDVNFLLPPEDAGEEAEAKNELSPMDRGLGVRAAFPEGFHPRRSSQGATQMPLYSSPIVKNPFMSPLLAPDSMLKSLPPVHIVACALDPMLDDSVMLARRLRNLGQPVTLRVVEDLPHGFLTLAALCRETRQAAELCVERIRLVLTPPAGAGPSGETGAAGVDGGCGGRH
Regarding B2, in assay [2], the binding result was “binds”.

For the origin of these results see paper PMC12499470.
